{"source": "PubChem BioAssay AID743121 (NCATS, 2013)", "screen": "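Knock-downs that sensitise breast cancer cells to camptothecin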 (primary screen)", "cells": "MDA-MB-231 cells, a human breast cancer line", "reagent": "single siRNA against human genes, 20 nM siRNA (0.8 pmol per well)", "time to read-out": "120 h (drug added 48 h after transfection, read 72 h later)", "treatment": "camptothecin 20 nM (about EC30) for 72 h; vehicle 0.1% DMSO in parallel plates", "measurement": "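Cell viability by ATP luminescence (CellTiter-Glo) as % of non-targeting siRNA wells, and the log2 ratio of viability without drug over viability with camptothecin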", "scale": "log2 vehicle/camptothecin viability: higher = stronger sensitisation to camptothecin", "hit rule": "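Active genes have an RSA gene-level p-value below 0.001, computed from the ratios of their separate siRNAs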", "note": "The deposit covers about 26,000 reagents; below is a part drawn at random. 167 of all reagents (0.63%) were called active. 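Calls are per gene from RSA p-values that are not deposited; an individual active-marked siRNA can sensitise only weakly.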 The numbers tell different reagents against one gene apart. Not all columns of the deposit are shown."}
{"gene": "TSSC4", "siRNA no.": 1, "log2 vehicle/camptothecin viability": -0.345, "Call": "inactive"}
{"gene": "TSSC4", "siRNA no.": 2, "log2 vehicle/camptothecin viability": 0.292, "Call": "inactive"}
{"gene": "TSSC4", "siRNA no.": 3, "log2 vehicle/camptothecin viability": 0.0939, "Call": "inactive"}
{"gene": "FRK", "siRNA no.": 1, "log2 vehicle/camptothecin viability": -0.325, "Call": "inactive"}
{"gene": "FRK", "siRNA no.": 2, "log2 vehicle/camptothecin viability": 0.143, "Call": "inactive"}
{"gene": "FRK", "siRNA no.": 3, "log2 vehicle/camptothecin viability": 0.116, "Call": "inactive"}
{"gene": "FRK", "siRNA no.": 4, "log2 vehicle/camptothecin viability": 0.0359, "Call": "inactive"}
{"gene": "MARCHF8", "siRNA no.": 1, "log2 vehicle/camptothecin viability": -0.362, "Call": "inactive"}
{"gene": "MARCHF8", "siRNA no.": 2, "log2 vehicle/camptothecin viability": -0.154, "Call": "inactive"}
{"gene": "MARCHF8", "siRNA no.": 3, "log2 vehicle/camptothecin viability": -0.00462, "Call": "inactive"}
{"gene": "MARCHF8", "siRNA no.": 4, "log2 vehicle/camptothecin viability": -0.0564, "Call": "inactive"}
{"gene": "LYVE1", "siRNA no.": 1, "log2 vehicle/camptothecin viability": -0.0877, "Call": "inactive"}
{"gene": "LYVE1", "siRNA no.": 2, "log2 vehicle/camptothecin viability": -0.401, "Call": "inactive"}
{"gene": "LYVE1", "siRNA no.": 3, "log2 vehicle/camptothecin viability": -0.0704, "Call": "inactive"}
{"gene": "LYVE1", "siRNA no.": 4, "log2 vehicle/camptothecin viability": -0.00617, "Call": "inactive"}
{"gene": "MBD2", "siRNA no.": 1, "log2 vehicle/camptothecin viability": 0.0904, "Call": "inactive"}
{"gene": "MBD2", "siRNA no.": 2, "log2 vehicle/camptothecin viability": -0.158, "Call": "inactive"}
{"gene": "MBD2", "siRNA no.": 3, "log2 vehicle/camptothecin viability": -0.174, "Call": "inactive"}
{"gene": "MBD2", "siRNA no.": 4, "log2 vehicle/camptothecin viability": 0.311, "Call": "inactive"}
{"gene": "GPC6", "siRNA no.": 1, "log2 vehicle/camptothecin viability": -0.072, "Call": "inactive"}
{"gene": "GPC6", "siRNA no.": 2, "log2 vehicle/camptothecin viability": 0.434, "Call": "inactive"}
{"gene": "GPC6", "siRNA no.": 3, "log2 vehicle/camptothecin viability": -0.222, "Call": "inactive"}
{"gene": "GPC6", "siRNA no.": 4, "log2 vehicle/camptothecin viability": -0.41, "Call": "inactive"}
{"gene": "SIK2", "siRNA no.": 1, "log2 vehicle/camptothecin viability": -0.345, "Call": "inactive"}
{"gene": "SIK2", "siRNA no.": 2, "log2 vehicle/camptothecin viability": -0.0362, "Call": "inactive"}
{"gene": "SIK2", "siRNA no.": 3, "log2 vehicle/camptothecin viability": -0.208, "Call": "inactive"}
{"gene": "SIK2", "siRNA no.": 4, "log2 vehicle/camptothecin viability": -0.0632, "Call": "inactive"}
{"gene": "KAT2B", "siRNA no.": 1, "log2 vehicle/camptothecin viability": -0.0957, "Call": "inactive"}
{"gene": "KAT2B", "siRNA no.": 2, "log2 vehicle/camptothecin viability": -0.131, "Call": "inactive"}
{"gene": "KAT2B", "siRNA no.": 3, "log2 vehicle/camptothecin viability": 0.232, "Call": "inactive"}
{"gene": "KAT2B", "siRNA no.": 4, "log2 vehicle/camptothecin viability": -0.306, "Call": "inactive"}
{"gene": "NHERF2", "siRNA no.": 1, "log2 vehicle/camptothecin viability": -0.246, "Call": "inactive"}
{"gene": "NHERF2", "siRNA no.": 2, "log2 vehicle/camptothecin viability": 0.498, "Call": "inactive"}
{"gene": "NHERF2", "siRNA no.": 3, "log2 vehicle/camptothecin viability": 0.0442, "Call": "inactive"}
{"gene": "NHERF2", "siRNA no.": 4, "log2 vehicle/camptothecin viability": -0.923, "Call": "inactive"}

Ordered by “log2 vehicle/camptothecin viability” (ascending): some entries from above.
{"gene": "MARCHF8", "siRNA no.": 1, "log2 vehicle/camptothecin viability": -0.362, "Call": "inactive"}
{"gene": "MARCHF8", "siRNA no.": 2, "log2 vehicle/camptothecin viability": -0.154, "Call": "inactive"}
{"gene": "MARCHF8", "siRNA no.": 3, "log2 vehicle/camptothecin viability": -0.00462, "Call": "inactive"}
{"gene": "FRK", "siRNA no.": 4, "log2 vehicle/camptothecin viability": 0.0359, "Call": "inactive"}
{"gene": "FRK", "siRNA no.": 3, "log2 vehicle/camptothecin viability": 0.116, "Call": "inactive"}
